In ChEMBL document CHEMBL1157379, “Transcriptional response of Candida parapsilosis following exposure to farnesol” (2007):
This continues a long series; more values of the same kind are listed elsewhere.

Columns and labels:
Type in all cases: functional
Candida parapsilosis [1] = assay: Decrease in CGD gene ortholog accession number orf19.4953 expression in Candida parapsilosis CLIB214 at 50 uM after 2 hrs by microarray based transcriptional profiling relative to control
Candida parapsilosis [2] = assay: Increase in MRP20 gene expression in Candida parapsilosis CLIB214 at 50 uM after 2 hrs by microarray based transcriptional profiling relative to control
Candida parapsilosis [3] = assay: Increase in CDC42 gene expression in Candida parapsilosis CLIB214 at 50 uM after 2 hrs by microarray based transcriptional profiling relative to control
Candida parapsilosis [4] = assay: Increase in CYS4 gene expression in Candida parapsilosis CLIB214 at 50 uM after 2 hrs by microarray based transcriptional profiling relative to control
Candida parapsilosis [5] = assay: Decrease in QCR2 gene expression in Candida parapsilosis CLIB214 at 50 uM after 2 hrs by microarray based transcriptional profiling relative to control
Candida parapsilosis [6] = assay: Decrease in CGD gene ortholog accession number orf19.6805 expression in Candida parapsilosis CLIB214 at 50 uM after 2 hrs by microarray based transcriptional profiling relative to control
Candida parapsilosis [7] = assay: Increase in CGD gene ortholog accession number orf19.1019 expression in Candida parapsilosis CLIB214 at 50 uM after 2 hrs by microarray based transcriptional profiling relative to control
Candida parapsilosis [8] = assay: Decrease in CGD gene ortholog accession number orf19.2136 expression in Candida parapsilosis CLIB214 at 50 uM after 2 hrs by microarray based transcriptional profiling relative to control
Candida parapsilosis [9] = assay: Decrease in CGD gene ortholog accession number orf19.6360 expression in Candida parapsilosis CLIB214 at 50 uM after 2 hrs by microarray based transcriptional profiling relative to control
Candida parapsilosis [10] = assay: Decrease in STE3 gene expression in Candida parapsilosis CLIB214 at 50 uM after 2 hrs by microarray based transcriptional profiling relative to control
Candida parapsilosis [11] = assay: Increase in CDC60B gene expression in Candida parapsilosis CLIB214 at 50 uM after 2 hrs by microarray based transcriptional profiling relative to control
Candida parapsilosis [12] = assay: Decrease in CGD gene ortholog accession number orf19.5751 expression in Candida parapsilosis CLIB214 at 50 uM after 2 hrs by microarray based transcriptional profiling relative to control
Candida parapsilosis [13] = assay: Decrease in CGD gene ortholog accession number orf19.7065 expression in Candida parapsilosis CLIB214 at 50 uM after 2 hrs by microarray based transcriptional profiling relative to control
Candida parapsilosis [14] = assay: Decrease in CGD gene ortholog accession number orf19.540 expression in Candida parapsilosis CLIB214 at 50 uM after 2 hrs by microarray based transcriptional profiling relative to control
Candida parapsilosis [15] = assay: Increase in CGD gene ortholog accession number orf19.6442 expression in Candida parapsilosis CLIB214 at 50 uM after 2 hrs by microarray based transcriptional profiling relative to control
Candida parapsilosis [16] = assay: Decrease in CGD gene ortholog accession number orf19.1028 expression in Candida parapsilosis CLIB214 at 50 uM after 2 hrs by microarray based transcriptional profiling relative to control
Candida parapsilosis [17] = assay: Decrease in CGD gene ortholog accession number orf19.728 expression in Candida parapsilosis CLIB214 at 50 uM after 2 hrs by microarray based transcriptional profiling relative to control
Candida parapsilosis [18] = assay: Decrease in CGD gene ortholog accession number orf19.1676 expression in Candida parapsilosis CLIB214 at 50 uM after 2 hrs by microarray based transcriptional profiling relative to control
Candida parapsilosis [19] = assay: Increase in TIF4631 gene expression in Candida parapsilosis CLIB214 at 50 uM after 2 hrs by microarray based transcriptional profiling relative to control
Candida parapsilosis [20] = assay: Decrease in CGD gene ortholog accession number orf19.4789 expression in Candida parapsilosis CLIB214 at 50 uM after 2 hrs by microarray based transcriptional profiling relative to control
Candida parapsilosis [21] = assay: Decrease in FBP1 gene expression in Candida parapsilosis CLIB214 at 50 uM after 2 hrs by microarray based transcriptional profiling relative to control
Candida parapsilosis [22] = assay: Increase in CGD gene ortholog accession number orf19.7069 expression in Candida parapsilosis CLIB214 at 50 uM after 2 hrs by microarray based transcriptional profiling relative to control
Candida parapsilosis [23] = assay: Increase in CGD gene ortholog accession number orf19.192 expression in Candida parapsilosis CLIB214 at 50 uM after 2 hrs by microarray based transcriptional profiling relative to control
Candida parapsilosis [24] = assay: Decrease in CGD gene ortholog accession number orf19.5274 expression in Candida parapsilosis CLIB214 at 50 uM after 2 hrs by microarray based transcriptional profiling relative to control
Candida parapsilosis [25] = assay: Increase in CGD gene ortholog accession number orf19.1552 expression in Candida parapsilosis CLIB214 at 50 uM after 2 hrs by microarray based transcriptional profiling relative to control
Candida parapsilosis [26] = assay: Increase in CGD gene ortholog accession number orf19.4609 expression in Candida parapsilosis CLIB214 at 50 uM after 2 hrs by microarray based transcriptional profiling relative to control
Candida parapsilosis [27] = assay: Decrease in MNL1 gene expression in Candida parapsilosis CLIB214 at 50 uM after 2 hrs by microarray based transcriptional profiling relative to control
Candida parapsilosis [28] = assay: Increase in CGD gene ortholog accession number orf19.1092 expression in Candida parapsilosis CLIB214 at 50 uM after 2 hrs by microarray based transcriptional profiling relative to control
Candida parapsilosis [29] = assay: Increase in CGD gene ortholog accession number orf19.7421 expression in Candida parapsilosis CLIB214 at 50 uM after 2 hrs by microarray based transcriptional profiling relative to control
Candida parapsilosis [30] = assay: Decrease in CGD gene ortholog accession number orf19.6621 expression in Candida parapsilosis CLIB214 at 50 uM after 2 hrs by microarray based transcriptional profiling relative to control
Candida parapsilosis [31] = assay: Increase in VCX1 gene expression in Candida parapsilosis CLIB214 at 50 uM after 2 hrs by microarray based transcriptional profiling relative to control
Candida parapsilosis [32] = assay: Decrease in CGD gene ortholog accession number orf19.6323 expression in Candida parapsilosis CLIB214 at 50 uM after 2 hrs by microarray based transcriptional profiling relative to control
Candida parapsilosis [33] = assay: Increase in CGD gene ortholog accession number orf19.3509 expression in Candida parapsilosis CLIB214 at 50 uM after 2 hrs by microarray based transcriptional profiling relative to control
Candida parapsilosis [34] = assay: Increase in HOG1 gene expression in Candida parapsilosis CLIB214 at 50 uM after 2 hrs by microarray based transcriptional profiling relative to control
Candida parapsilosis [35] = assay: Decrease in CGD gene ortholog accession number orf19.2666 expression in Candida parapsilosis CLIB214 at 50 uM after 2 hrs by microarray based transcriptional profiling relative to control
Candida parapsilosis [36] = assay: Decrease in CGD gene ortholog accession number orf19.337 expression in Candida parapsilosis CLIB214 at 50 uM after 2 hrs by microarray based transcriptional profiling relative to control

## CC(C)=CCC/C(C)=C/CC/C(C)=C/CO [FARNESOL]
Candida parapsilosis [1]
  fold change (FC): 1.75
Candida parapsilosis [2]
  fold change (FC): 1.63
Candida parapsilosis [3]
  fold change (FC): 1.82
Candida parapsilosis [4]
  fold change (FC): 2.1
Candida parapsilosis [5]
  fold change (FC): 1.56
Candida parapsilosis [6]
  fold change (FC): 1.95
Candida parapsilosis [7]
  fold change (FC): 1.62
Candida parapsilosis [8]
  fold change (FC): 2
Candida parapsilosis [9]
  fold change (FC): 2.48
Candida parapsilosis [10]
  fold change (FC): 1.65
Candida parapsilosis [11]
  fold change (FC): 2.73
Candida parapsilosis [12]
  fold change (FC): 1.69
Candida parapsilosis [13]
  fold change (FC): 2.41
Candida parapsilosis [14]
  fold change (FC): 1.8
Candida parapsilosis [15]
  fold change (FC): 1.58
Candida parapsilosis [16]
  fold change (FC): 1.6
Candida parapsilosis [17]
  fold change (FC): 1.85
Candida parapsilosis [18]
  fold change (FC): 1.98
Candida parapsilosis [19]
  fold change (FC): 1.9
Candida parapsilosis [20]
  fold change (FC): 2.42
Candida parapsilosis [21]
  fold change (FC): 1.93
Candida parapsilosis [22]
  fold change (FC): 1.55
Candida parapsilosis [23]
  fold change (FC): 1.58
Candida parapsilosis [24]
  fold change (FC): 1.89
Candida parapsilosis [25]
  fold change (FC): 2.05
Candida parapsilosis [26]
  fold change (FC): 1.54
Candida parapsilosis [27]
  fold change (FC): 1.88
Candida parapsilosis [28]
  fold change (FC): 1.52
Candida parapsilosis [29]
  fold change (FC): 1.56
Candida parapsilosis [30]
  fold change (FC): 2.8
Candida parapsilosis [31]
  fold change (FC): 1.72
Candida parapsilosis [32]
  fold change (FC): 1.54
Candida parapsilosis [33]
  fold change (FC): 1.5
Candida parapsilosis [34]
  fold change (FC): 1.56
Candida parapsilosis [35]
  fold change (FC): 1.78
Candida parapsilosis [36]
  fold change (FC): 1.55
